Results from patent US20050192264A1, “Slow release steroid composition” (priority 2004, published 2005).
At least one structure is not confirmed: it was looked up by name or label, or the drawing left a doubt.

Tests used:
Format in all cases: physicochemical
[1] = Flow-through dissolution of TA samples in 20% methanol in water; settings: for Average Absorbance: 238 nm
Experimental: Samples were prepared by dispensing 10 mg of sample into 10 mL of a balanced salt solution comprising 1% Tween 80. The sample in solution was then subjected to vigorous shaking and a number of rapid expulsions through a 22 gauge needle. 2 mL of this suspension was then filtered through a […] Durapore membrane filter which retained essentially all of the particles. The filter is then rinsed with 2 mL water.
This method of sample preparation avoids the problem of particles formed of large agglomerations of crystals which appear to dissolve as large crystals and therefore bias results.
Dissolution was performed using a flow through system that pumps a degassed solvent solution of 20% methanol in water through the dissolution chamber at around 11 mL per minute. This flow rate maintained sink conditions wherein a large surplus of solvent/absorbant/carrier capacity is maintained throughout the experiment. The combination of flow rate and solvent solution dissolves the TA crystals at a rate that enables a flow-through cell to record absorbance values in the acceptable range for virtually all of the 30 minute run time and for the experiment to be completed in a reasonable period.
The solubility of TA in the solvent solution is approximately 2-3 times that of TA in water alone.
Approximately 2 mg of sample was prepared on a filter as outlined above. The filter was then placed in a modified stainless steel swinnex adaptor that was used as the dissolution chamber. The effluent from the dissolution chamber was passed through a low volume flow-through cell in a Hitachi 1001 spectrophotometer with the wavelength set at 238 nm. The absorbance was recorded on a chart recorder with 2 absorbance units causing 100% pen deflection.
Dissolution studies were carried out for a period of 30 minutes with a flow rate of 11 mL per minute. Average absorbance values over 2 minute periods were calculated. The experiment was done in duplicate and the two absorbance values for each sample period were averaged.

[2] = Particle size distribution by laser light scattering (Malvern Mastersizer S); settings: for D(v, 0.9%): fractions from sedimentation of NewChem TA in 1 metre column
[3] = Scanning electron microscopy of TA crystals; settings: magnification 160×; listed as non-micronised triamcinolone acetonide from Farmabios
[4] = period 1 of 2 min each (=2 min), 20% methanol in water, 11 mL/min
[5] = period 2 of 2 min each (=4 min), 20% methanol in water, 11 mL/min
[6] = period 3 of 2 min each (=6 min), 20% methanol in water, 11 mL/min
[7] = period 4 of 2 min each (=8 min), 20% methanol in water, 11 mL/min
[8] = period 5 of 2 min each (=10 min), 20% methanol in water, 11 mL/min
[9] = period 5 of 2 min each (=10 min), 20% methanol in water, 11 mL/min, listed as Italian Sample
[10] = period 6 of 2 min each (=12 min), 20% methanol in water, 11 mL/min
[11] = period 7 of 2 min each (=14 min), 20% methanol in water, 11 mL/min
[12] = period 8 of 2 min each (=16 min), 20% methanol in water, 11 mL/min
[13] = period 9 of 2 min each (=18 min), 20% methanol in water, 11 mL/min
[14] = period 10 of 2 min each (=20 min), 20% methanol in water, 11 mL/min
[15] = period 11 of 2 min each (=22 min), 20% methanol in water, 11 mL/min
[16] = period 12 of 2 min each (=24 min), 20% methanol in water, 11 mL/min
[17] = period 13 of 2 min each (=26 min), 20% methanol in water, 11 mL/min
[18] = period 14 of 2 min each (=28 min), 20% methanol in water, 11 mL/min
[19] = period 15 of 2 min each (=30 min), 20% methanol in water, 11 mL/min
[20] = after Polytron homogenization, speed and time per batch

## CC1(C)O[C@@H]2C[C@H]3[C@@H]4CCC5=CC(=O)C=C[C@]5(C)[C@@]4(F)[C@@H](O)C[C@]3(C)[C@]2(C(=O)CO)O1 [Italian sample, triamcinolone acetonide]
[1]; 20% methanol in water, 11 mL/min
  time by which sample had completely dissolved: ≤ 14 min
[1]; all 15 periods, 30 minute run
  sum of the absorbance values (Average Absorbance column): 3.049
[1]; calculated from absorbance and fluid volume using an E1% of 350, about 2 mg applied
  amount of TA dissolved over this period: 1.92 mg
[1]; over the 15 periods, 30 minute run
  average of the absorbance values: 0.203
[1]; [4]
  % Dissolved: 49.2%
  Cumulative % Dissolved: 49.2%
  Average Absorbance: 1.5
[1]; [5]
  % Dissolved: 29.7%
  Cumulative % Dissolved: 78.9%
  Average Absorbance: 0.905
[1]; [6]
  % Dissolved: 13.6%
  Cumulative % Dissolved: 92.5%
  Average Absorbance: 0.415
[1]; [7]
  % Dissolved: 5.1%
  Cumulative % Dissolved: 97.6%
  Average Absorbance: 0.155
[1]; [8]
  Cumulative % Dissolved: 99.3%
  Average Absorbance: 0.052
[1]; [9]
  % Dissolved: 1.7%
  Cumulative % Dissolved: 99.3%
[1]; [10]
  % Dissolved: 0.6%
  Cumulative % Dissolved: 99.9%
  Average Absorbance: 0.018
[1]; [11]
  % Dissolved: 0.1%
  Cumulative % Dissolved: 100%
  Average Absorbance: 0.004
[1]; [12]
  % Dissolved: 0.0%
  Cumulative % Dissolved: 100%
  Average Absorbance: 0.000
[1]; [13]
  % Dissolved: 0.0%
  Cumulative % Dissolved: 100%
  Average Absorbance: 0.000
[1]; [14]
  % Dissolved: 0.0%
  Cumulative % Dissolved: 100%
  Average Absorbance: 0.000
[1]; [15]
  % Dissolved: 0.0%
  Cumulative % Dissolved: 100%
  Average Absorbance: 0.000
[1]; [16]
  % Dissolved: 0.0%
  Cumulative % Dissolved: 100%
  Average Absorbance: 0.000
[1]; [17]
  % Dissolved: 0.0%
  Cumulative % Dissolved: 100%
  Average Absorbance: 0.000
[1]; [18]
  % Dissolved: 0.0%
  Cumulative % Dissolved: 100%
  Average Absorbance: 0.000
[1]; [19]
  % Dissolved: 0.0%
  Cumulative % Dissolved: 100%
  Average Absorbance: 0.000

## CC1(C)O[C@@H]2C[C@H]3[C@@H]4CCC5=CC(=O)C=C[C@]5(C)[C@@]4(F)[C@@H](O)C[C@]3(C)[C@]2(C(=O)CO)O1 [RGA1504, triamcinolone acetonide]
[2]; [20]
  D(v, 0.9): 257 μm
  Peak size (size of the largest number of particles): 163 μm

## CC1(C)O[C@@H]2C[C@H]3[C@@H]4CCC5=CC(=O)C=C[C@]5(C)[C@@]4(F)[C@@H](O)C[C@]3(C)[C@]2(C(=O)CO)O1 [Farmabios (non-micronised), triamcinolone acetonide]
[2]; no sonication, suspended in 0.25% Tween 20, 0.25% NaCMC
  D(v, 0.9): 289 μm
[3]
  crystal size, long (electron micrograph): 100-400 μm

## CC1(C)O[C@@H]2C[C@H]3[C@@H]4CCC5=CC(=O)C=C[C@]5(C)[C@@]4(F)[C@@H](O)C[C@]3(C)[C@]2(C(=O)CO)O1 [Large fraction, triamcinolone acetonide]
[2]
  D(v, 0.9%): 591 μm

## CC1(C)O[C@@H]2C[C@H]3[C@@H]4CCC5=CC(=O)C=C[C@]5(C)[C@@]4(F)[C@@H](O)C[C@]3(C)[C@]2(C(=O)CO)O1 [Medium fraction, triamcinolone acetonide]
[2]
  D(v, 0.9%): 444 μm

## CC1(C)O[C@@H]2C[C@H]3[C@@H]4CCC5=CC(=O)C=C[C@]5(C)[C@@]4(F)[C@@H](O)C[C@]3(C)[C@]2(C(=O)CO)O1 [RGA1501, triamcinolone acetonide]
[2]; [20]
  D(v, 0.9): 341 μm
  Peak size (size of the largest number of particles): 222 μm

## CC1(C)O[C@@H]2C[C@H]3[C@@H]4CCC5=CC(=O)C=C[C@]5(C)[C@@]4(F)[C@@H](O)C[C@]3(C)[C@]2(C(=O)CO)O1 [RGA1506, triamcinolone acetonide]
[2]; [20]
  D(v, 0.9): 195 μm
  Peak size (size of the largest number of particles): 121 μm

## CC1(C)O[C@@H]2C[C@H]3[C@@H]4CCC5=CC(=O)C=C[C@]5(C)[C@@]4(F)[C@@H](O)C[C@]3(C)[C@]2(C(=O)CO)O1 [RGA0703, triamcinolone acetonide]
[2]; [20]
  D(v, 0.9): 324 μm
  Peak size (size of the largest number of particles): 222 μm

## CC1(C)O[C@@H]2C[C@H]3[C@@H]4CCC5=CC(=O)C=C[C@]5(C)[C@@]4(F)[C@@H](O)C[C@]3(C)[C@]2(C(=O)CO)O1 [RGA1505, triamcinolone acetonide]
[2]; [20]
  D(v, 0.9): 208 μm
  Peak size (size of the largest number of particles): 141 μm

## CC1(C)O[C@@H]2C[C@H]3[C@@H]4CCC5=CC(=O)C=C[C@]5(C)[C@@]4(F)[C@@H](O)C[C@]3(C)[C@]2(C(=O)CO)O1 [RGA1503, triamcinolone acetonide]
[2]; [20]
  D(v, 0.9): 312 μm
  Peak size (size of the largest number of particles): 191 μm

## CC1(C)O[C@@H]2C[C@H]3[C@@H]4CCC5=CC(=O)C=C[C@]5(C)[C@@]4(F)[C@@H](O)C[C@]3(C)[C@]2(C(=O)CO)O1 [Small fraction, triamcinolone acetonide]
[2]
  D(v, 0.9%): 312 μm

## CC1(C)O[C@@H]2C[C@H]3[C@@H]4CCC5=CC(=O)C=C[C@]5(C)[C@@]4(F)[C@@H](O)C[C@]3(C)[C@]2(C(=O)CO)O1 [RGA1502, triamcinolone acetonide]
[2]; [20]
  D(v, 0.9): 287 μm
  Peak size (size of the largest number of particles): 163 μm
